In US20200270332A1:
No constants are given. Whether binding was seen depends on the method and setting. Some binding calls cover weakened binding; strength is not graded here.

By UniProt entry, the sequences of proteins in these tests, tags left out. Where a name states a change or a piece, a line headed by the entry shows the natural chain unless it says otherwise. Chains listed by the source or under a name are the forms on record and can include a tag or linker. Residues count along the entry.
UniProt P14780, residues 20-707: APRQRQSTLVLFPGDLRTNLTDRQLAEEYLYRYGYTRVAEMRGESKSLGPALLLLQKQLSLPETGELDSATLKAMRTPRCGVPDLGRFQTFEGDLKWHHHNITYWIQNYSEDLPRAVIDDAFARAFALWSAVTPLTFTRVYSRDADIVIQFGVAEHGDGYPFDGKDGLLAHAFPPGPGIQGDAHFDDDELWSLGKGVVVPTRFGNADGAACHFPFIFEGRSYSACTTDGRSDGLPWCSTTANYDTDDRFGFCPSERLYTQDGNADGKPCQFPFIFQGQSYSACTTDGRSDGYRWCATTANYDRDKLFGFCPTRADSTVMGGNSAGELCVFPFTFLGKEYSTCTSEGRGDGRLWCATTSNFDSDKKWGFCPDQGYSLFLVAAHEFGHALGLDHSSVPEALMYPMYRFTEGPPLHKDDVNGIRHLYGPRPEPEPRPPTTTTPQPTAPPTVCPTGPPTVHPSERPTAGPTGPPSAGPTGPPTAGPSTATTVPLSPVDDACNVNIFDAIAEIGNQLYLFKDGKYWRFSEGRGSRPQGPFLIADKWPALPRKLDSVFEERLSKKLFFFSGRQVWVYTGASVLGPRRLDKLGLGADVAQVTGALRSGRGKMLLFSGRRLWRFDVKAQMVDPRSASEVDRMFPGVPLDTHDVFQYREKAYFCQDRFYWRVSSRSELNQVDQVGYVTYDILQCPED
UniProt P08253, residues 30-660: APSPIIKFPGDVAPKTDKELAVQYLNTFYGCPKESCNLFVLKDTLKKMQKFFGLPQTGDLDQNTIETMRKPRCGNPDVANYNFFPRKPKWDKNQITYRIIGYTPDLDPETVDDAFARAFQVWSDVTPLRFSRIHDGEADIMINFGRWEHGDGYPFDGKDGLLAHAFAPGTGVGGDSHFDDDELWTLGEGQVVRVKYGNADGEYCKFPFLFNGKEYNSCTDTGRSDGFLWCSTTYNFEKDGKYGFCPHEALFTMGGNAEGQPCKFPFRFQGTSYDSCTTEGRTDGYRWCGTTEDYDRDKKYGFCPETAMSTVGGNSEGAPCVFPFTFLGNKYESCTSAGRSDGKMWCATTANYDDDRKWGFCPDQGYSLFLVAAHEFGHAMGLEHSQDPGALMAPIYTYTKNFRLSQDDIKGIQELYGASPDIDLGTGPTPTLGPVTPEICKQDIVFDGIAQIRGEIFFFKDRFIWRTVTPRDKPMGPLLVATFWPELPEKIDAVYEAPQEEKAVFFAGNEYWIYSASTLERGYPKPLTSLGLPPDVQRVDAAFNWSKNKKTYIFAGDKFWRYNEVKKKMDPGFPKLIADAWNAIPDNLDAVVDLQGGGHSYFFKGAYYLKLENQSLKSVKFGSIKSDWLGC
human fibronectin (P02751, form named): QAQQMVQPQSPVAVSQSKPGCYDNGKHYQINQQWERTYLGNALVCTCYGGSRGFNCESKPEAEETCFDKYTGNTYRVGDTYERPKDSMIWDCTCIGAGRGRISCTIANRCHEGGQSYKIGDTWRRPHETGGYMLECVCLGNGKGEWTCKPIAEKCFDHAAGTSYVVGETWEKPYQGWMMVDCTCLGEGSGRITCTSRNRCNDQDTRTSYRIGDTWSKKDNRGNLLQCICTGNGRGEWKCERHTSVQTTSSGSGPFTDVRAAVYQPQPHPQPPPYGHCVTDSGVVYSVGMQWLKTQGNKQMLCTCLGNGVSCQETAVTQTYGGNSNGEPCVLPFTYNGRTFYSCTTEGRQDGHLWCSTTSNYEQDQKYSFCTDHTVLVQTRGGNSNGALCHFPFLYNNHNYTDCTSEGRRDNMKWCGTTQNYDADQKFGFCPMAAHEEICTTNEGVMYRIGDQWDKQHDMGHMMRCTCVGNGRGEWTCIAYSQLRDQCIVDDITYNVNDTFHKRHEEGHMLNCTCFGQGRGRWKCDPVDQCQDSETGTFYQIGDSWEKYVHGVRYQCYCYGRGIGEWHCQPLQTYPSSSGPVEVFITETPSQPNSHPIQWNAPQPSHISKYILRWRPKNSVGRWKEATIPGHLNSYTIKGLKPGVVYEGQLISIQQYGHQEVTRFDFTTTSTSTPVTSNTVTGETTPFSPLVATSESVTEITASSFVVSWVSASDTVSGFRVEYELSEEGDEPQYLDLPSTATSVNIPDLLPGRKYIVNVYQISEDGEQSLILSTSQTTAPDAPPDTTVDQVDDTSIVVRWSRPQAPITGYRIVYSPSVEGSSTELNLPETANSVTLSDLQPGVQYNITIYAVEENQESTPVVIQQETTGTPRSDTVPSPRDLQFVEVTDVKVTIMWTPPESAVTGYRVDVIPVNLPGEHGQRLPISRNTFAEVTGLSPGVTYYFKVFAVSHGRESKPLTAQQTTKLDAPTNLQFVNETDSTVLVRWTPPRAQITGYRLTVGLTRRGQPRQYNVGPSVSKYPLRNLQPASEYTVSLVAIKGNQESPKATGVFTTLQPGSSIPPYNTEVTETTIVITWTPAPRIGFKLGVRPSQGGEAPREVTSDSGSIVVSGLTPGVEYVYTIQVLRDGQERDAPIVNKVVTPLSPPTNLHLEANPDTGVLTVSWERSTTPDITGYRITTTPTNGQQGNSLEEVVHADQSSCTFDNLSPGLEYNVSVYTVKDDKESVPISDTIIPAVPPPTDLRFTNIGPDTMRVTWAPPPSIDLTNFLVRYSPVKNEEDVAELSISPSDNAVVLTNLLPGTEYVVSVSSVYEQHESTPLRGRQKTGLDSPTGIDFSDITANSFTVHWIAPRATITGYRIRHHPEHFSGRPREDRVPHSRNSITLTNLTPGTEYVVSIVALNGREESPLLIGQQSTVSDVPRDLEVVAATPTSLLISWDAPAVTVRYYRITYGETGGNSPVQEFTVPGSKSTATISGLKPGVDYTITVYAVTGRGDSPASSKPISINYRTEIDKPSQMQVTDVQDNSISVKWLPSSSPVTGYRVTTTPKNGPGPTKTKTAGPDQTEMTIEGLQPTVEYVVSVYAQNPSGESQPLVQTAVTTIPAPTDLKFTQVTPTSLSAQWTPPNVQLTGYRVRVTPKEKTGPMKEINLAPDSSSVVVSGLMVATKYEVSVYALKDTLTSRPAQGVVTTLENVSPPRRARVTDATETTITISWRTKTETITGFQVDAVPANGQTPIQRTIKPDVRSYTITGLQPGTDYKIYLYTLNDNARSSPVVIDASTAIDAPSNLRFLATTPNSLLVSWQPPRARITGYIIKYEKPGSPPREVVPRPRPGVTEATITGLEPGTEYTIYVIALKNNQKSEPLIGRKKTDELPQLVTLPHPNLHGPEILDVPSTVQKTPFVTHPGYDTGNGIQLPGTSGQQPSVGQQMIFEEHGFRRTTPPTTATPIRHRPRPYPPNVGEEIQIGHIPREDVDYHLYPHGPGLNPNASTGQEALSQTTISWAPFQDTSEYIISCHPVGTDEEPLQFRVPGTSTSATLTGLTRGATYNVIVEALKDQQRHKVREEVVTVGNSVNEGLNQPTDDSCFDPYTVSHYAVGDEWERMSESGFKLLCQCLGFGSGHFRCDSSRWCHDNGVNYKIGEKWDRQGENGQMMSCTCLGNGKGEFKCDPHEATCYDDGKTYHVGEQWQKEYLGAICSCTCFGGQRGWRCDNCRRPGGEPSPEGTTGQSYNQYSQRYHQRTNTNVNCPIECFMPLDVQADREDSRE
UniProt P39060: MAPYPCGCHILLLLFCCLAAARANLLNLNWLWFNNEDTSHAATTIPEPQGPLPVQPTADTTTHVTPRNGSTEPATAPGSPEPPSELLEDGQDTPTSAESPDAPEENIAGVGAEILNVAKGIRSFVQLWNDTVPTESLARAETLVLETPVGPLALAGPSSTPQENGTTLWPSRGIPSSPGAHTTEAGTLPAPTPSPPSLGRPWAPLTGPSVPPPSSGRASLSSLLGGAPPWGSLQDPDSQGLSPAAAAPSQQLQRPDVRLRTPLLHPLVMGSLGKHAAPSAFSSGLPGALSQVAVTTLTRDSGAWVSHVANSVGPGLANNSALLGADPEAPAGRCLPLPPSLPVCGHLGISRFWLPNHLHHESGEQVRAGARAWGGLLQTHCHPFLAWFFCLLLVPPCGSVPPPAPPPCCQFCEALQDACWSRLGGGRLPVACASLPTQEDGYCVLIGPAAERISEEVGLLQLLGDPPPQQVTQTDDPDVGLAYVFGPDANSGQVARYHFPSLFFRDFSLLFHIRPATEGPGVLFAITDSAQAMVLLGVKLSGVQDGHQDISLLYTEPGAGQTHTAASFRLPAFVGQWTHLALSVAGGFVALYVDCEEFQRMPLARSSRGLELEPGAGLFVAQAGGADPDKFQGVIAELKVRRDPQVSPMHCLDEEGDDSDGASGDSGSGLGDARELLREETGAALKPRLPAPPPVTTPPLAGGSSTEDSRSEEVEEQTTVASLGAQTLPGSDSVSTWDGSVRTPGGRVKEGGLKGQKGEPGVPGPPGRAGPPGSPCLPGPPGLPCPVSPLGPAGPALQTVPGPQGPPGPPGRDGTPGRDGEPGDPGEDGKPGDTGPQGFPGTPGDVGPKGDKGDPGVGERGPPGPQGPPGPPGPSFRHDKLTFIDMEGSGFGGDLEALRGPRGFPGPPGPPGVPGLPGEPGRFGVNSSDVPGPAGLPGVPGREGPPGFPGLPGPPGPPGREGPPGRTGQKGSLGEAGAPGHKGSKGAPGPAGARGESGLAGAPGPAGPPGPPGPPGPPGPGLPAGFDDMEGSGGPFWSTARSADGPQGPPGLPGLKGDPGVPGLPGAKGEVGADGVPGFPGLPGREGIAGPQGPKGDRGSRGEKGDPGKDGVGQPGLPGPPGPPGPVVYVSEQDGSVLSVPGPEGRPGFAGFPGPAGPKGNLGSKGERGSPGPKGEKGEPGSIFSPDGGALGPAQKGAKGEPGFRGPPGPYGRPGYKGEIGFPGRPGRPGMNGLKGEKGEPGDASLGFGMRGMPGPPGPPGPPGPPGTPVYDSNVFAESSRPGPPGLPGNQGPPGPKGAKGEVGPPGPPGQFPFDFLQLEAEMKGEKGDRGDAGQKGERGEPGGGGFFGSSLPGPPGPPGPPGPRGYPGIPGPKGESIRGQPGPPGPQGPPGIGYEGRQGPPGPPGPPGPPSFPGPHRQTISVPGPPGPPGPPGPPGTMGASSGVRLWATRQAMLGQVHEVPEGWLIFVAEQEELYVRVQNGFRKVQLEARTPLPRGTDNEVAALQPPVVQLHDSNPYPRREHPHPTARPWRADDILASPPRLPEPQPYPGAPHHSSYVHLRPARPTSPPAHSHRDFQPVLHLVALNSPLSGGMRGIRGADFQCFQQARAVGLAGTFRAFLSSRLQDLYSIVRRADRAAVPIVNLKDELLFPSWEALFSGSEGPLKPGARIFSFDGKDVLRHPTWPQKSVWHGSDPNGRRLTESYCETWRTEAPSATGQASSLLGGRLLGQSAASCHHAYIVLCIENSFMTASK

What was measured:
[1] = target: recombinant human matrix metalloproteinase-9 (human) (UniProt P14780); test: ELISA, plate coated with human MMP-9, anti-endostatin antibody detection
[2] = target: recombinant human matrix metalloproteinase-2 (human) (UniProt P08253); test: ELISA, plate coated with human MMP-2, anti-endostatin antibody detection
[3] = target: human fibronectin (human) (UniProt P02751); test: ELISA, plate coated with fibronectin, anti-endostatin antibody detection
[4] = target: recombinant human matrix metalloproteinase-2 (human) (UniProt P08253); test: ELISA, plate coated with MMP-2, anti-endostatin antibody detection

- binding [1]: binds
- binding [2]: binds
- binding [3]: binds
- binding [4]: binds
Substance: Fc-endostatin (human Fc-endostatin, dimer through the Fc) (from UniProt P39060 1572-1751) (Fc fusion)
